Test results from patent US20100093064A1, “Metagenomic Functional Selection” (PRESIDENT AND FELLOWS OF HARVARD COLLEGE, priority 2008, published 2010).
Some results were stated once for a whole list of compounds, not compound by compound.

Test system: oral and gut human-associated microbiome isolates
Test: Antibiotic resistance profiling of human-associated microbiome isolates
Type: cell-based, bacteria isolated from human sputum and fecal samples
Method: Three sputum samples (oral microbiomes) and two fecal samples (gut microbiomes) were collected from three healthy volunteers at three different sampling times (day 1, 140 and 141), and fresh samples were plated on Luria broth (LB) agar. […]. Cultures were incubated for 16 hours at 37° C. and growth was assayed by absorption at 600 nm.

Row | SMILES | Microbiome isolates resistant, on average (1102 oral and gut isolates, antibiotic 20 mg/L in LB) | Oral microbiome isolates susceptible (O1, O2, O3 isolates, 20 mg/L)
1 | CCn1cc(C(=O)O)c(=O)c2ccc(C)nc21 [nalidixic acid] | over 70% | –
2 | CN[C@H](CC(C)C)C(=O)N[C@H]1C(=O)N[C@@H](CC(N)=O)C(=O)N[C@H]2C(=O)N[C@H]3C(=O)N[C@H](C(=O)N[C@H](C(=O)O)c4cc(O)cc(O)c4-c4cc3ccc4O)[C@H](O)c3ccc(c(Cl)c3)Oc3cc2cc(c3O[C@@H]2O[C@H](CO)[C@@H](O)[C@H](O)[C@H]2O[C@H]2C[C@](C)(N)[C@H](O)[C@H](C)O2)Oc2ccc(cc2Cl)[C@H]1O [vancomycin] | – | More than 70%
